Reference: article PMC8024323, “Drosophila TNFRs Grindelwald and Wengen bind Eiger with different affinities and promote distinct cellular functions” (Nature Communications, 2021)

Sequences of proteins named here, by UniProt entry; tags and fusion partners are left off. A change or cut given only in a name is not applied to a line headed by its entry.
UniProt Q8MUJ1: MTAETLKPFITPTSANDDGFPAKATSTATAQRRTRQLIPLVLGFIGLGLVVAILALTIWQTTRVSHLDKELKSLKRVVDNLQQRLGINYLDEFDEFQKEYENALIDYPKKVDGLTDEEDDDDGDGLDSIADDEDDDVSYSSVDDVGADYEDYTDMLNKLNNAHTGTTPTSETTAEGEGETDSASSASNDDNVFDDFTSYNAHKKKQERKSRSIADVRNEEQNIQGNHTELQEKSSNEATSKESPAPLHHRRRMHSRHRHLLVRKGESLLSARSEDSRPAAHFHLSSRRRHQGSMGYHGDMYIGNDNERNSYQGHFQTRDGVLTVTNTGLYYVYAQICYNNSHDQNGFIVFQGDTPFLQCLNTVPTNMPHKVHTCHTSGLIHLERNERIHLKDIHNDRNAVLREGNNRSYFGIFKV

What was measured:
[1] = molecular target: Strep-Egr^146–409 Arg396Ala-Arg401Ala (Drosophila melanogaster) (UniProt Q8MUJ1); assay: pull-down; 2 μM strep-tagged Egr^146–409 adsorbed on Strep-tactin beads, 10 μM Grnd^30–97 in solution, 1 h at 4 °C, 0.01 M Hepes pH 7.5, 0.1 M NaCl, 5% glycerol, 0.05% Tween, 0.5 mM EDTA; Coomassie staining; both purified
[2] = molecular target: Strep-Egr^146–409 Asp337Ala (Drosophila melanogaster) (UniProt Q8MUJ1); assay: as above

B1: Grnd^30–97 (extracellular domain of Grindelwald) (domain or fragment, Drosophila melanogaster, UniProt Q9VJ83 30-97, looked up)
chain: GESRDCHGTICHPVNEFCYVATERCHPCIEVCNNQTHNYDAFLCAKECSAYKTFEPLKAEMLDIQNTQ
notes: Grindelwald (Grnd), Drosophila melanogaster, extracellular domain, residues 30-97; pETM14 vector; His6-tag removed with PreScission protease; Monomer by static light scattering; also called wild-type Grnd^30–97; source: E. coli SHuffle B cells (NEB), purified (Ni HiTrap, PreScission, Resource-Q); not shown: His6, N-terminal, cleaved
For B1, the binding [1] was “no binding (tested: 10 μM Grnd^30–97 on 2 μM Egr^146–409)” and the binding [2] was “no binding (tested: 10 μM Grnd^30–97 on 2 μM Egr^146–409)”.

No constants are given. Whether binding was seen depends on the method and setting.
